According to the supplement of paper PMC4604168 (melanoma cell lines):
Some of the results follow. Single values are uncertain, as repeats are few or missing.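 Imaging used 1,536-well plates; nuclei positive for cleaved PARP by antibody were divided by total DNA-stained nuclei to yield the apoptosis fraction. Doses for screening kept most cells viable, and cell lines differ markedly in resting and induced cleaved-PARP levels.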

Experiments:
Assay in all cases: cleaved PARP positive nuclei fraction relative to DMSO control; melanoma cells; higher = more apoptosis
Settings in all cases: library dose: low library concentration; 72 h
COLO792 = test system: COLO792
COLO800 = test system: COLO800
COLO829 = test system: COLO829
G361 = test system: G361
IPC-298 = test system: IPC-298
IST-MEL1 = test system: IST-MEL1
LB2518-MEL = test system: LB2518-MEL
LOXIMVI = test system: LOXIMVI

| Structure (SMILES) | cleaved PARP positive nuclei fraction (COLO792) [%] | cleaved PARP positive nuclei fraction (COLO800) [%] | cleaved PARP positive nuclei fraction (COLO829) [%] | cleaved PARP positive nuclei fraction (G361) [%] | cleaved PARP positive nuclei fraction (IPC-298) [%] | cleaved PARP positive nuclei fraction (IST-MEL1) [%] | cleaved PARP positive nuclei fraction (LB2518-MEL) [%] | cleaved PARP positive nuclei fraction (LOXIMVI) [%] |
| --- | --- | --- | --- | --- | --- | --- | --- | --- |
| N#CC[C@H](C1CCCC1)n1cc(-c2ncnc3[nH]ccc23)cn1 [ruxolitinib] + O=C(Oc1ccc([N+](=O)[O-])cc1)N1CCC(C(O)(c2ccc3c(c2)OCO3)c2ccc3c(c2)OCO3)CC1 [JZL184] (first compound 1 µM, partner dose 1 µM) | 149 | 31.1 | 79.6 | 192 | 256 | 113 | 49.9 | 133 |
| COc1ccc(C2=N[C@@H](c3ccc(Cl)cc3)[C@@H](c3ccc(Cl)cc3)N2C(=O)N2CCNC(=O)C2)c(OC(C)C)c1 [Nutlin-3] + C/C(O)=C(\C#N)C(=O)Nc1cc(Br)ccc1Br [LFM-A13] (first compound 0.1 µM, partner dose 2 µM) | 34.7 | 338 | 122 | 146 | 184 | 99.3 | 86.4 | 85.5 |
| N.N.[Cl][Pt][Cl] [cisplatin] + Cc1cc([N+](=O)[O-])ccc1NS(=O)(=O)c1cc(Cl)ccc1Cl [FH535] (first compound 1.6 µM, partner dose 1 µM) | 309 | 31.2 | 55.7 | 42.2 | 137 | 99.4 | 84.1 | 116 |
| Nc1nc(F)nc2c1ncn2[C@@H]1O[C@H](CO)[C@@H](O)[C@@H]1O [fludarabine] + C/C(O)=C(\C#N)C(=O)Nc1cc(Br)ccc1Br [LFM-A13] (first compound 0.2 µM, partner dose 2 µM) | 76.3 | 75.5 | 138 | 123 | 64.6 | 95.4 | 64 | 141 |
| CN1CCN(c2ccc3nc(-c4c(N)c5c(F)cccc5[nH]c4=O)[nH]c3c2)CC1 [Dovitinib] + C/C(O)=C(\C#N)C(=O)Nc1cc(Br)ccc1Br [LFM-A13] (first compound 0.1 µM, partner dose 2 µM) | 138 | 102 | 153 | 93.5 | 184 | 188 | 147 | 61.2 |
| Cn1cnc2c(F)c(Nc3ccc(Br)cc3Cl)c(C(=O)NOCCO)cc21 [selumetinib] + O=C(Oc1ccc([N+](=O)[O-])cc1)N1CCC(C(O)(c2ccc3c(c2)OCO3)c2ccc3c(c2)OCO3)CC1 [JZL184] (first compound 0.015 µM, partner dose 1 µM) | 63.1 | 174 | 117 | 98.1 | 131 | 176 | 199 | 258 |
| C[C@@H](Oc1cc(-c2cnn(C3CCNCC3)c2)cnc1N)c1c(Cl)ccc(F)c1Cl [Crizotinib] + O=C(Oc1ccc([N+](=O)[O-])cc1)N1CCC(C(O)(c2ccc3c(c2)OCO3)c2ccc3c(c2)OCO3)CC1 [JZL184] (first compound 0.2 µM, partner dose 1 µM) | 61.6 | 39.3 | 135 | 107 | 37.6 | 91.3 | 132 | 42.6 |
| Cc1ccc(Nc2nccc(N(C)c3ccc4c(C)n(C)nc4c3)n2)cc1S(N)(=O)=O [Pazopanib] + C/C(O)=C(\C#N)C(=O)Nc1cc(Br)ccc1Br [LFM-A13] (first compound 0.4 µM, partner dose 2 µM) | 154 | 231 | 97.4 | 73.3 | 49.2 | 94.1 | 98.9 | 528 |
| CCCCCCCCc1ccc(CCC(N)(CO)CO)cc1 [fingolimod] + O=C(Oc1ccc([N+](=O)[O-])cc1)N1CCC(C(O)(c2ccc3c(c2)OCO3)c2ccc3c(c2)OCO3)CC1 [JZL184] (first compound 2 µM, partner dose 1 µM) | 57.5 | 180 | 206 | 75.7 | 87.8 | 58.6 | 128 | 42.2 |
| C[C@@H](N)c1ccc(C(=O)Nc2ccnc3[nH]ccc23)cc1 + O=C(Oc1ccc([N+](=O)[O-])cc1)N1CCC(C(O)(c2ccc3c(c2)OCO3)c2ccc3c(c2)OCO3)CC1 [JZL184] (first compound 0.4 µM, partner dose 1 µM) | 158 | 90.6 | 31 | 216 | 45 | 362 | 140 | 141 |
| N.N.[Cl][Pt][Cl] [cisplatin] + c1cc(-c2cnn3cc(-c4ccc(OCCN5CCCCC5)cc4)cnc23)ccn1 [Dorsomorphin] (first compound 1.6 µM, partner dose 0.4 µM) | 81 | 110 | 127 | 161 | 38.5 | 169 | 261 | 165 |
| COc1ccc(C2=N[C@@H](c3ccc(Cl)cc3)[C@@H](c3ccc(Cl)cc3)N2C(=O)N2CCNC(=O)C2)c(OC(C)C)c1 [Nutlin-3] + Cc1cc(SCc2sc(-c3ccc(C(F)(F)F)c(F)c3)nc2C)ccc1OCC(=O)O [GW0742] (first compound 0.1 µM, partner dose 2 µM) | 88.9 | 117 | 83.5 | 140 | 88.5 | 186 | 67 | 202 |

Some entries already given, reduced to cleaved PARP positive nuclei fraction (LB2518-MEL) [%] and cleaved PARP positive nuclei fraction (G361) [%].
Structure (SMILES) | cleaved PARP positive nuclei fraction (LB2518-MEL) [%] | cleaved PARP positive nuclei fraction (G361) [%]
COc1ccc(C2=N[C@@H](c3ccc(Cl)cc3)[C@@H](c3ccc(Cl)cc3)N2C(=O)N2CCNC(=O)C2)c(OC(C)C)c1 [Nutlin-3] + C/C(O)=C(\C#N)C(=O)Nc1cc(Br)ccc1Br [LFM-A13] (first compound 0.1 µM, partner dose 2 µM) | 86.4 | 146
C[C@@H](N)c1ccc(C(=O)Nc2ccnc3[nH]ccc23)cc1 + O=C(Oc1ccc([N+](=O)[O-])cc1)N1CCC(C(O)(c2ccc3c(c2)OCO3)c2ccc3c(c2)OCO3)CC1 [JZL184] (first compound 0.4 µM, partner dose 1 µM) | 140 | 216
